Laboratory results: publication PMC9465040
No constants are given. Whether binding was seen depends on the method and setting. Some results given as binding are weak or reduced against the parent protein; the word gives no strength. Where a sequence is shown, tags or fusion partners need not be part of it.

T1: AtTTG1 (Arabidopsis … TESTA GLABRA1), pGBKT7 (BD) fusion (Arabidopsis thaliana) (UniProt Q9XGN1)
T1 sequence: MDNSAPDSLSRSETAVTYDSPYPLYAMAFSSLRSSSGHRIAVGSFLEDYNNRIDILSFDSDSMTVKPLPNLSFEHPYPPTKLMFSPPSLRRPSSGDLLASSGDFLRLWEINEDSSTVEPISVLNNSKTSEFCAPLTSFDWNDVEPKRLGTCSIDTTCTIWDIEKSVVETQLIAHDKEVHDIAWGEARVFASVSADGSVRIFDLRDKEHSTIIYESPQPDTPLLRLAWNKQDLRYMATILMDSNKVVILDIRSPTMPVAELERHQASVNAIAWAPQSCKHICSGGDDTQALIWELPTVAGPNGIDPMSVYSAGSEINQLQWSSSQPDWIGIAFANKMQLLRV


Target: T1, AtTTG1 (Arabidopsis … TESTA GLABRA1), pGBKT7 (BD) fusion (Arabidopsis thaliana)
Assay: two-hybrid; pGADT7 (AD) and pGBKT7 (BD) plasmids co-transformed into yeast strain AH109; growth on SD-LW, SD-LWAH and SD-LWAH-X-α-gal medium; photographed at 5 day after incubation

Row | Binder | binding
1 | AtGL3 (Arabidopsis GLABRA3), pGADT7 (AD) fusion (protein, UniProt Q9FN69 1-637) MATGQNRTTVPENLKKHLAVSVRNIQWSYGIFWSVSASQSGVLEWGDGYYNGDIKTRKTIQASEIKADQLGLRRSEQLSELYESLSVAESSSSGVAAGSQVTRRASAAALSPEDLADTEWYYLVCMSFVFNIGEGMPGRTFANGEPIWLCNAHTADSKVFSRSLLAKSAAVKTVVCFPFLGGVVEIGTTEHITEDMNVIQCVKTSFLEAPDPYATILPARSDYHIDNVLDPQQILGDEIYAPMFSTEPFPTASPSRTTNGFDQEHEQVADDHDSFMTERITGGASQVQSWQLMDDELSNCVHQSLNSSDCVSQTFVEGAAGRVAYGARKSRVQRLGQIQEQQRNVKTLSFDPRNDDVHYQSVISTIFKTNHQLILGPQFRNCDKQSSFTRWKKSSSSSSGTATVTAPSQGMLKKIIFDVPRVHQKEKLMLDSPEARDETGNHAVLEKKRREKLNERFMTLRKIIPSINKIDKVSILDDTIEYLQELERRVQELESCRESTDTETRGTMTMKRKKPCDAGERTSANCANNETGNGKKVSVNNVGEAEPADTGFTGLTDNLRIGSFGNEVVIELRCAWREGVLLEIMDVISDLHLDSHSVQSSTGDGLLCLTVNCKHKGSKIATPGMIKEALQRVAWIC | binds
2 | AtEGL3 (Arabidopsis ENHANCER OF GLABRA3), pGADT7 (AD) fusion (protein, UniProt Q9CAD0 1-596) MATGENRTVPDNLKKQLAVSVRNIQWSYGIFWSVSASQPGVLEWGDGYYNGDIKTRKTIQAAEVKIDQLGLERSEQLRELYESLSLAESSASGSSQVTRRASAAALSPEDLTDTEWYYLVCMSFVFNIGEGIPGGALSNGEPIWLCNAETADSKVFTRSLLAKSASLQTVVCFPFLGGVLEIGTTEHIKEDMNVIQSVKTLFLEAPPYTTISTRSDYQEIFDPLSDDKYTPVFITEAFPTTSTSGFEQEPEDHDSFINDGGASQVQSWQFVGEEISNCIHQSLNSSDCVSQTFVGTTGRLACDPRKSRIQRLGQIQEQSNHVNMDDDVHYQGVISTIFKTTHQLILGPQFQNFDKRSSFTRWKRSSSVKTLGEKSQKMIKKILFEVPLMNKKEELLPDTPEETGNHALSEKKRREKLNERFMTLRSIIPSISKIDKVSILDDTIEYLQDLQKRVQELESCRESADTETRITMMKRKKPDDEEERASANCMNSKRKGSDVNVGEDEPADIGYAGLTDNLRISSLGNEVVIELRCAWREGILLEIMDVISDLNLDSHSVQSSTGDGLLCLTVNCKHKGTKIATTGMIQEALQRVAWIC | binds
